Laboratory results: paper PMC7819943, “Rice protein-binding microarrays: a tool to detect cis-acting elements near promoter regions in rice”
This is one part of the list.

Sequences of proteins named here, by UniProt entry; tags and fusion partners are left off.
UniProt Q0JBA9, entry or part of it: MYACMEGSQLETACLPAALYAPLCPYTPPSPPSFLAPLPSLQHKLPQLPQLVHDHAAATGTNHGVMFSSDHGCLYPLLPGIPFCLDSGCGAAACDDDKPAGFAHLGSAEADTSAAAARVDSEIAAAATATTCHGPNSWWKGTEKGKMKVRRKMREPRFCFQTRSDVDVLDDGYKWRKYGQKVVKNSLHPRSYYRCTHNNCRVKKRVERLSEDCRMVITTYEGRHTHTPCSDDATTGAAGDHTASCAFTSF

The sequences below were run against OsWRKY34 (Oryza sativa, UniProt Q0JBA9 1-250) (assay: protein-binding microarray (RPBM); PBS, 2% BSA, 51.3 ng/ul salmon testes DNA, 50 uM zinc acetate, 200 nM TF, 25 C, 1 h; high values mean tight binding). Settings: protein: recombinant; tags: N-terminal polyhistidine and DsRed monomer fusion (pET32a); label: CyDye5-dUTP incorporated in the synthesized complementary strand; 3' TTTTT single-stranded linker to array surface; dsDNA, one strand shown.
Procedure, shortened: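 Transcription factors were each fused at the N-terminus to a polyhistidine tag plus DsRed and expressed in E. coli BL21-CodonPlus before Ni–NTA purification. Binding to a double-stranded custom Agilent array was carried out with 200 nM protein at 25 °C for 1 h in PBS, 2% BSA, salmon testes DNA and 50 µM zinc acetate. The binding signal is per-feature fluorescence intensity, in arbitrary units, on an Axon 4000B scanner.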

Row | Sequence | binding signal
1 | GGGTTATTCTTTGCATGATATTTGACGTTTTTTCTCGCTGCGGAGTCACCTAGTGCAG | 9920 fluorescence intensity (a.u.)
2 | CATATGTTGGGATCCTCCTCGTCGATTTTCTTGGTTCTTTCGGAGTCACCTAGTGCAG | 8480 fluorescence intensity (a.u.)
3 | CGCTGAGCTTTGTGTTGCTTTTGGTCTCCTAGATAGGTTTCGGAGTCACCTAGTGCAG | 10200 fluorescence intensity (a.u.)
4 | CAGCCACTTACACAGTAGTTACACCTCATTTACACACACTCGGAGTCACCTAGTGCAG | 9340 fluorescence intensity (a.u.)
5 | GCTCTCCCGACTTGTCTAAGCCCTTTATTTGCTTATGATTCGGAGTCACCTAGTGCAG | 8590 fluorescence intensity (a.u.)
6 | TCCTATTCCTTTATTTTTTCATTCCTACTATTCGGAGGAGCGGAGTCACCTAGTGCAG | 8120 fluorescence intensity (a.u.)
7 | ACTTTTTAACCAACGTTTGACCATTCGTCTTATTCAAATTCGGAGTCACCTAGTGCAG | 10600 fluorescence intensity (a.u.)
8 | GCTATTTTTTCGTTTCTGGATTCCCTATTCTTGTCCCGTCCGGAGTCACCTAGTGCAG | 10800 fluorescence intensity (a.u.)
9 | CCCGCCTCGCGTCGCCGCCGCCGCCGCCGCCCCGCGCGCCCGGAGTCACCTAGTGCAG | 9640 fluorescence intensity (a.u.)
10 | GCGCCTTTACTCCTTTACCATGTCGTTTTTTTACTCCAAGCGGAGTCACCTAGTGCAG | 13500 fluorescence intensity (a.u.)
11 | CGAGTGCCAGCCATCCCACTCCACCTTTGCCTCGTCGTCTCGGAGTCACCTAGTGCAG | 11100 fluorescence intensity (a.u.)
12 | CTTCCAGCGATGCCGCAGCCGTTTTGCGCCGCCCGCACTGCGGAGTCACCTAGTGCAG | 8480 fluorescence intensity (a.u.)
13 | ACATCAACCTGTCATACACACACAACTTTTCAGTCACATCCGGAGTCACCTAGTGCAG | 8160 fluorescence intensity (a.u.)
14 | CTCCTCTCTCACGCGTCTCTGTTCCCGTCCTCATCCCGACCGGAGTCACCTAGTGCAG | 10100 fluorescence intensity (a.u.)
15 | CACTTTTGAGTATTACATGTCTCATCAATCATCTTCATTTCGGAGTCACCTAGTGCAG | 9400 fluorescence intensity (a.u.)
16 | CCCACCTCGCTGTCGTTTCTTCCTCTGGCTGGTCGCGTTGCGGAGTCACCTAGTGCAG | 12700 fluorescence intensity (a.u.)
17 | CGTCCAACTTTGATCGTCCGTTTTATTTGAATTTTTTTATCGGAGTCACCTAGTGCAG | 11200 fluorescence intensity (a.u.)
18 | TTGATTGTATCCCTGGGCACTTGTATTCTTGAGTGGATTTCGGAGTCACCTAGTGCAG | 9480 fluorescence intensity (a.u.)
19 | AACCCGGTTTTATCCTATGTGGCTGCTAACTCAGCGTGGGCGGAGTCACCTAGTGCAG | 8100 fluorescence intensity (a.u.)
20 | AGTAACTGTTCTTGTTTGTGCTCTGTAAAATTTGTATATCCGGAGTCACCTAGTGCAG | 9860 fluorescence intensity (a.u.)
21 | TCCGTTACCCTTGAAGCCTTATGGAGCTTTGCCTCTTGTTCGGAGTCACCTAGTGCAG | 9310 fluorescence intensity (a.u.)

Row | Sequence | binding signal
22 | ATTAGTCCAACTATAAAGGCTGCAATTTTCTCTTCCATTGCGGAGTCACCTAGTGCAG | 8170 fluorescence intensity (a.u.)
23 | AGAATTTACTACTTTGTCTTACATTAGCTTACGGCATTTACGGAGTCACCTAGTGCAG | 9340 fluorescence intensity (a.u.)
24 | ACTATCTACGTCATCTCCTATTTCTTCCCTTTTCTTCTCTCGGAGTCACCTAGTGCAG | 11600 fluorescence intensity (a.u.)
25 | TGACATCGTCTTCTCCAACTTCGGCCGCCGGCGTCAATCTCGGAGTCACCTAGTGCAG | 8120 fluorescence intensity (a.u.)
26 | TCCTCGCCTCATCCGCCACCACGGTTTGCTTCGCCACACGCGGAGTCACCTAGTGCAG | 9120 fluorescence intensity (a.u.)
27 | ACTTTTTTGCTTTCCCAACTGCTCCTGTGGATGTAACGCCCGGAGTCACCTAGTGCAG | 9160 fluorescence intensity (a.u.)
28 | GGTCCCTGCCTCGTGAGCAGCCCATCTGCACTGCCTTCTGCGGAGTCACCTAGTGCAG | 8310 fluorescence intensity (a.u.)
29 | TTTGCGTTGGTTCTGAGGGTGTTCTTTTGGGCAATCTCGTCGGAGTCACCTAGTGCAG | 10600 fluorescence intensity (a.u.)
30 | TGAGTGGTGGGAGGAGTTAGCAAGTGGTTTGACCGTGGTTCGGAGTCACCTAGTGCAG | 11800 fluorescence intensity (a.u.)
31 | ATTTGTTTCGACTAGCCTGTGCATCAATGTTTCCCAACTCCGGAGTCACCTAGTGCAG | 15800 fluorescence intensity (a.u.)
32 | CGAATTCGTCGTCGGCCATCACCGACCGCGGTGCTCCCTGCGGAGTCACCTAGTGCAG | 8500 fluorescence intensity (a.u.)
33 | TGTTCAGTCTTTTGGTCATAAATATTTGATCATAAAAATTCGGAGTCACCTAGTGCAG | 12300 fluorescence intensity (a.u.)
34 | GGGGAGAATAACCTGGAGGAGAGCTGGTGGAGGGGTCTTACGGAGTCACCTAGTGCAG | 9360 fluorescence intensity (a.u.)
35 | GCAGGTCCTCGTCAATCTCCGGCACCACCACTCCATTCGTCGGAGTCACCTAGTGCAG | 9560 fluorescence intensity (a.u.)
36 | TTCCTTGTACCTATTTGCAATCAATGACAGTGTTCCCCATCGGAGTCACCTAGTGCAG | 8850 fluorescence intensity (a.u.)
37 | GCCGCCGCCTCTCCGCTTCGCAGCGCCGGCGCCGACTCCACGGAGTCACCTAGTGCAG | 8500 fluorescence intensity (a.u.)
38 | TGCCCTATTCAGACTATTTTTAAATTCTTGATTAAACTCACGGAGTCACCTAGTGCAG | 8580 fluorescence intensity (a.u.)
39 | GACAAGACTGAGACATTGCTAACGACTACGTAGTCTTTTCCGGAGTCACCTAGTGCAG | 10200 fluorescence intensity (a.u.)
40 | CCACATCCCACAGGCCGCGCTTTCTTTCTCAAAGCTTTAACGGAGTCACCTAGTGCAG | 8950 fluorescence intensity (a.u.)
41 | GTTCGAGCTGACTCGTGTGTGTTGTTATGTGTGTGGGTGTCGGAGTCACCTAGTGCAG | 10600 fluorescence intensity (a.u.)
42 | ACATAGCTCGAGCTCGTTTGGTCCTACGCATGGCCACTCTCGGAGTCACCTAGTGCAG | 8640 fluorescence intensity (a.u.)

Single entries from the list.
GTTCGAGCTGACTCGTGTGTGTTGTTATGTGTGTGGGTGTCGGAGTCACCTAGTGCAG – binding signal: 10600 fluorescence intensity (a.u.)
ATTTGTTTCGACTAGCCTGTGCATCAATGTTTCCCAACTCCGGAGTCACCTAGTGCAG – binding signal: 15800 fluorescence intensity (a.u.)
